The values that follow come from US6355617B1 (Syngenta Limited, priority 1996, dated 2002).

Series [1] can be described thus: general procedure: Fmoc solid-phase peptide synthesis; Fmoc Rink Amide MBHA Resin; DIPCDI/HOBT; HBTU/HOBT/DIPEA. The note with it: whole synthesis, scale 0.25 mmol.
Series [2] in a line: general procedure: Fmoc solid-phase peptide synthesis; Fmoc Rink Amide MBHA Resin (Novabiochem); DIPCDI/HOBT; HBTU/HOBT/DIPEA. The note with it: whole synthesis, RP-HPLC, scale of the general procedure 0.25 mmoles.

Phv-Ala-Lys-IIb-Val-Ala-Ala-Ala-Pip-NH2 displayed an isolated mass in series [1] of 15 mg. The “final HPLC purity” value in series [2] came out at 100%.
The corresponding values for “Phv-Arg-Ala-IIb-Thr-Ala-Ala-Ala-Papa-NH2” are 45 mg and 100%.
